Experimental data: patent US20240182445A1 (ONO PHARMACEUTICAL CO., LTD., priority 2019, published 2024)

Chains of the proteins cited; added tags and fusions are not shown.
UniProt O95069, whole entry: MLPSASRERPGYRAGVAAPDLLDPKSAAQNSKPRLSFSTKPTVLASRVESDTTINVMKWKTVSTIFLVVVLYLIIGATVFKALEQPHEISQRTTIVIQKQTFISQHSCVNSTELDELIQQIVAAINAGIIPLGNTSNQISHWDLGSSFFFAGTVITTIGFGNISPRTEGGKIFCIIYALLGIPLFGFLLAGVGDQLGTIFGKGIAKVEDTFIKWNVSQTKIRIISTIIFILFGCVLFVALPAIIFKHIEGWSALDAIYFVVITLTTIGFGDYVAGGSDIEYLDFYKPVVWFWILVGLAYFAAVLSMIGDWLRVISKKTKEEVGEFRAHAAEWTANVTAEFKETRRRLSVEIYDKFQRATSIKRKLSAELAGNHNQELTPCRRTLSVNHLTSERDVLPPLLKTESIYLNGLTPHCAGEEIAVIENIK

Target: human TREK-1 (Homo sapiens, UniProt O95069)
Experiment: TREK-1 Thallium (Tl+) flux assay, Method 1
Conditions: read-out: Tl+ Assay IC50
Description: The term “thallium flux assay” herein refers to a fluorescence-based assay used to monitor the activity of TREK channels. Thallium is a congener of potassium that readily fluxes through the pore of TREK channels. Thallium flux is measured using a commercially available, thallium-sensitive fluorescent dye called Thallos. The detail method is described below.
CHO-K1 cells stably expressing human TREK-1 were plated in 384-well plates, cultured overnight, loaded with Thallos dye the following day. Test compounds or control compound (tert-butyl (3-((4-(benzyloxy)-2-methylphenyl)carbamoyl)-4-chlorophenyl)carbamate) or 0.3% DMSO (vehicle control) which were prepared on separate plates were added to the cell plates and incubated for 10 min, and then the cells were treated with thallium stimulus buffer to initiate thallium flux. To measure the efficacy and potency of test compounds, the change in fluorescence intensity (ΔRatio) and % inhibition were calculated using the following equations:
ΔRatio=(fluorescence intensity at 25 seconds after thallium addition)/(average of fluorescent intensity before thallium addition)
% inhibition={1−(ΔRatio of test compound−ΔRatio of 10 μM control compound)/(ΔRatio of 0.3% DMSO−ΔRatio of 10 μM control compound)}×100

Cc1cc(OCc2ccccc2)ccc1NC(=O)c1c(Cl)cnn1CC1CN(C(=O)C(C)(C)C)CCO1 (stereo not shown)
IC50: 3.98 µM

The structures given here were assigned with low confidence; some may be wrong.
